The values below come from article PMC12483569.

Amino acid sequences for entries named in this document (tags omitted).
UniProt P70168: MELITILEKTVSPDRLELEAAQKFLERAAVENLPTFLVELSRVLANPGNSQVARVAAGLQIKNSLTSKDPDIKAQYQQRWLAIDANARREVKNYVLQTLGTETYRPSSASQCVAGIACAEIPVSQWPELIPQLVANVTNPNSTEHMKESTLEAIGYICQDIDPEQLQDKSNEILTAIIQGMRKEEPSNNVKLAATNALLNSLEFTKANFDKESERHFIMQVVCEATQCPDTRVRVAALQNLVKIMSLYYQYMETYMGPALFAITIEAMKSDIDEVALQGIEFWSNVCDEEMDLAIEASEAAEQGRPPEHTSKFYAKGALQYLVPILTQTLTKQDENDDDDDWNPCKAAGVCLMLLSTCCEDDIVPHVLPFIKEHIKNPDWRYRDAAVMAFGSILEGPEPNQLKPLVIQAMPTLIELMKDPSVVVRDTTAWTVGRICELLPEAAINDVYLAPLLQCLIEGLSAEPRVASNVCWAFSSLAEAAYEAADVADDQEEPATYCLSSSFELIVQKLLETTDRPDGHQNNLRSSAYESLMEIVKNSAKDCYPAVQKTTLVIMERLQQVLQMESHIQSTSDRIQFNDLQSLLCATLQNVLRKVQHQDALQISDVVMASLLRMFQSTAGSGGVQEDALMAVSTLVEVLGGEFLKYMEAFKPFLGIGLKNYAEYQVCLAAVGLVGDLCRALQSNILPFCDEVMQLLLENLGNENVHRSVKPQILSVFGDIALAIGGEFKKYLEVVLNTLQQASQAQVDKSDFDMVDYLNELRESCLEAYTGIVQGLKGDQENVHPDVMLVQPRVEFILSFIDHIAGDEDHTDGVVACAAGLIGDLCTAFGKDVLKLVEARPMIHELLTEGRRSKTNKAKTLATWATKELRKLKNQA
UniProt Q3TKT4: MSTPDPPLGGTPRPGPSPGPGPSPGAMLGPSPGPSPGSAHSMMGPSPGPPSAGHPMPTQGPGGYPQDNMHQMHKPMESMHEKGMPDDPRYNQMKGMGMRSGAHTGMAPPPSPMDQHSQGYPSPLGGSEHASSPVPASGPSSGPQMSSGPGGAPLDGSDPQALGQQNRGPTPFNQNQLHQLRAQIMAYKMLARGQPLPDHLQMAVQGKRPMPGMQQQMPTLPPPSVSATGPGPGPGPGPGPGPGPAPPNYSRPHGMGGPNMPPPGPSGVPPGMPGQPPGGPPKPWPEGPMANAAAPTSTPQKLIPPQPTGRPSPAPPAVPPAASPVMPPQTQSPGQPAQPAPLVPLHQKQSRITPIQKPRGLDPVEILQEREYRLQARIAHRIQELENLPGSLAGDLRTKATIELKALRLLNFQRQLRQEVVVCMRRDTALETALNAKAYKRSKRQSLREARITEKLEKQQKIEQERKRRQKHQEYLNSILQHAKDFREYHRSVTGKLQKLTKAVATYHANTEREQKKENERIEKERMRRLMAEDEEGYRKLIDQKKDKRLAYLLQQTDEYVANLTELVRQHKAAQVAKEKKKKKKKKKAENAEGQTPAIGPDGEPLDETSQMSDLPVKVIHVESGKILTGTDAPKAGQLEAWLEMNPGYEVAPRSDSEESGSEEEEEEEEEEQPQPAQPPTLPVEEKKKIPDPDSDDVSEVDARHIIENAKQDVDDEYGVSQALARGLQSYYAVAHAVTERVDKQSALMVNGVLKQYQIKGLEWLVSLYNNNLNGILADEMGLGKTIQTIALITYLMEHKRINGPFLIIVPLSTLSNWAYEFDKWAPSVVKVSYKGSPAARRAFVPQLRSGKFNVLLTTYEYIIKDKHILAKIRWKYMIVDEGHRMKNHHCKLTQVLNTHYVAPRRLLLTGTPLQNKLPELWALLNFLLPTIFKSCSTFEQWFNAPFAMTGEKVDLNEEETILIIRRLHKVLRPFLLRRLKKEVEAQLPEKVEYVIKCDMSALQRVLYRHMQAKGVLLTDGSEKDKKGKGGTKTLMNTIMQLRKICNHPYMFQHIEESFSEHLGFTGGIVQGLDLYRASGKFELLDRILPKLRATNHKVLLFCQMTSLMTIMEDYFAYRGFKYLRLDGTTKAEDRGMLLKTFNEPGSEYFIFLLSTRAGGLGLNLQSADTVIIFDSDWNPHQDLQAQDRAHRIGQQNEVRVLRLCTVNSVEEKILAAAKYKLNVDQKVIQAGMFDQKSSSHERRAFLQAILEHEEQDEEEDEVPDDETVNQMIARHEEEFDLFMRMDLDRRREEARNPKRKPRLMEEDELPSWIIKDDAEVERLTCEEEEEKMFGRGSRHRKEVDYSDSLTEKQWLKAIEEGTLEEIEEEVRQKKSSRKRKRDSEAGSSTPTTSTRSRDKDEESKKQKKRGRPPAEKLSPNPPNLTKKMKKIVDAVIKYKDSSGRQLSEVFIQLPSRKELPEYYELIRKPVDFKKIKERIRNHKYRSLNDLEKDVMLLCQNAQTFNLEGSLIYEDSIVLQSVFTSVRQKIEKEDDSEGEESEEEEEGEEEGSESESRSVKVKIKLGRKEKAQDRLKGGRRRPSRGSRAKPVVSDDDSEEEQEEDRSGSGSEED
UniProt Q6P5F9: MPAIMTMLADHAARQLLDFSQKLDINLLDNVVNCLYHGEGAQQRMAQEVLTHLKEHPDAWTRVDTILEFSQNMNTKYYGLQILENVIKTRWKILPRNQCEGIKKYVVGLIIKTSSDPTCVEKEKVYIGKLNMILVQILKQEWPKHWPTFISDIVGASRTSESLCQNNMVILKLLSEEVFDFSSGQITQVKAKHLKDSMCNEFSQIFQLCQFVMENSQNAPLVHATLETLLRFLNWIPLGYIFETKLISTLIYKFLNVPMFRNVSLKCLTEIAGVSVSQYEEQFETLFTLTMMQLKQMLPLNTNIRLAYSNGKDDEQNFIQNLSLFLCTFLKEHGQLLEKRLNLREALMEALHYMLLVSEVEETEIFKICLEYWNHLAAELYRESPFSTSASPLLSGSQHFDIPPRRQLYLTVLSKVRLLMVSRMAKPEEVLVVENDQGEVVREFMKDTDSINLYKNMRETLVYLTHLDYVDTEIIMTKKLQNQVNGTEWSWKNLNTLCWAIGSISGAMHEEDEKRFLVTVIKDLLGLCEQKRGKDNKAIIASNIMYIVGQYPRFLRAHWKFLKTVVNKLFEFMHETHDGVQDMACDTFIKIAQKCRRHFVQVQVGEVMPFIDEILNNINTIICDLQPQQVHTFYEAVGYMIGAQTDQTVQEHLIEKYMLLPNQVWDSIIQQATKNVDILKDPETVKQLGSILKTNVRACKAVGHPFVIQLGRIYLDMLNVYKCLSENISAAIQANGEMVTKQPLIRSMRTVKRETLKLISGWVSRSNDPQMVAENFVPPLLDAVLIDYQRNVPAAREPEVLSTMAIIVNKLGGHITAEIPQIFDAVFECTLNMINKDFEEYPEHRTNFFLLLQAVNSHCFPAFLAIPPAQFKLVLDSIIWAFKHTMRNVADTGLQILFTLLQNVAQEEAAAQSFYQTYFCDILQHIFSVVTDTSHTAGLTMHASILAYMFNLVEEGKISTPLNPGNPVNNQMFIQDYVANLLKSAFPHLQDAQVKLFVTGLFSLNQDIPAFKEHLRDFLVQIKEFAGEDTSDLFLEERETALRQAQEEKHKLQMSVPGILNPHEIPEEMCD

These are yes or no findings as the source states them, for the method shown. In cells and extracts the contact can be indirect. These calls come from enrichment with a bait or labelling near it, and not all partners need be listed. Sequences can lack the tags named with a protein.

The target in this experiment is T1, SGK3-TurboID fusion used for proximity labeling (UniProt Q9ERE3).
T1 sequence: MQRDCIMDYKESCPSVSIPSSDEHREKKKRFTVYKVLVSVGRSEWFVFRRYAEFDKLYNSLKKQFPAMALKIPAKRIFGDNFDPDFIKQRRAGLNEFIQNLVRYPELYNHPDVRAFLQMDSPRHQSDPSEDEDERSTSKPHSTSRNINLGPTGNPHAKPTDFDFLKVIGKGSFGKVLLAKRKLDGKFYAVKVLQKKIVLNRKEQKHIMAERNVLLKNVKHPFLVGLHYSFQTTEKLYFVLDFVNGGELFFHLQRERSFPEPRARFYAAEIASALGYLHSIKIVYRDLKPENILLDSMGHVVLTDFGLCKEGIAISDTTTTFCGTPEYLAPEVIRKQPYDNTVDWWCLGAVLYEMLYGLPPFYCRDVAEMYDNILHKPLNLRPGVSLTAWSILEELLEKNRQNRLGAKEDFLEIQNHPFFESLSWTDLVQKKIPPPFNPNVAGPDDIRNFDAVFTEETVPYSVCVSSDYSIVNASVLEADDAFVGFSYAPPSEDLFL
Briefly: proximity labelling; TurboID-based proximity labeling combined with mass spectrometry; SGK3-TurboID as bait; biotin-labeled proteins compared between cells treated with MDI for 0 and 3 days.

For the substance Importin β1 (from UniProt P70168 1-876), the binding entry is reported as “binds”.
Take “SMARCA4 (BRG1), core subunit of the BAF (SWI/SNF) complex, in differentiating SVF cells (from UniProt Q3TKT4 1-1613)”: the binding entry is on record as “binds”.
The entry for exportin-1 (from UniProt Q6P5F9 1-1071) is “binds”.
